Measurements reported in the supplement of paper PMC10849652.
The list shows a part of the results.

The chains behind the UniProt entries cited, without tags or fusion partners. Where a name states a change or a piece, a line headed by the entry shows the natural chain unless it says otherwise.
UniProt Q9NPE2: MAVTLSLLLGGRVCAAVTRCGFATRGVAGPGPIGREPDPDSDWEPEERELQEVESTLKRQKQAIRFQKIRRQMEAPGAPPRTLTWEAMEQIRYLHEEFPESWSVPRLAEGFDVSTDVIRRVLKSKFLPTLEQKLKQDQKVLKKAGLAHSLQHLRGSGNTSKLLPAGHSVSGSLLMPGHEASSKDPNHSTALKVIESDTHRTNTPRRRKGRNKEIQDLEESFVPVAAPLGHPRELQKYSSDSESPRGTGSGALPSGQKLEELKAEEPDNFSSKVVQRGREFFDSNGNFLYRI
UniProt Q12968: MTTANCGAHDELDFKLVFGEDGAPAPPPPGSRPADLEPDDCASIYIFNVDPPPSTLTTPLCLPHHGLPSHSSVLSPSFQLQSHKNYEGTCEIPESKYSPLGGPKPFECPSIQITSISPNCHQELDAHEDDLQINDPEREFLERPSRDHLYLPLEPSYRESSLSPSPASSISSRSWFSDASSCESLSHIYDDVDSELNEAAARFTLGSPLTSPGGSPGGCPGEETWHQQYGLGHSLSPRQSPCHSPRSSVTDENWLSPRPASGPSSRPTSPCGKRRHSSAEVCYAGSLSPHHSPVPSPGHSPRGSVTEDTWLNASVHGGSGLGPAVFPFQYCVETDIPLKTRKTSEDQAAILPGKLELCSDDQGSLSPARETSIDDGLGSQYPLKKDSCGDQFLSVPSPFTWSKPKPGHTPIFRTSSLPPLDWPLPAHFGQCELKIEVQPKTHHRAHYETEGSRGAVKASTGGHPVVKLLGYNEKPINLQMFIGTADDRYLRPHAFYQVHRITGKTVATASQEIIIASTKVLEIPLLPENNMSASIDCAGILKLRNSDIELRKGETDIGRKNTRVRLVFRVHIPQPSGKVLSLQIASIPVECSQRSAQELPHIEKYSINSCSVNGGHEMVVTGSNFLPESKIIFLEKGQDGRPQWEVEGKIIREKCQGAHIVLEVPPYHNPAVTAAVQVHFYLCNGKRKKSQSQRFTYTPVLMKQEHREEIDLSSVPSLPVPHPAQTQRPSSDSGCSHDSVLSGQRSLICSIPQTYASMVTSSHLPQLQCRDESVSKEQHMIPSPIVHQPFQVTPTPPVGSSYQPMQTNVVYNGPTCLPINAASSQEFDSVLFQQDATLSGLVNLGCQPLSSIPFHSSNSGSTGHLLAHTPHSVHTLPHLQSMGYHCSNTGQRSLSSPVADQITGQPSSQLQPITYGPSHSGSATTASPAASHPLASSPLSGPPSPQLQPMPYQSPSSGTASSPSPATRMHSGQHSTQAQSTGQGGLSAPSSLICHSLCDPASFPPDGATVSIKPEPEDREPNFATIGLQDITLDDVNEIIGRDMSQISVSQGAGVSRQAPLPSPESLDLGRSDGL
UniProt O75323: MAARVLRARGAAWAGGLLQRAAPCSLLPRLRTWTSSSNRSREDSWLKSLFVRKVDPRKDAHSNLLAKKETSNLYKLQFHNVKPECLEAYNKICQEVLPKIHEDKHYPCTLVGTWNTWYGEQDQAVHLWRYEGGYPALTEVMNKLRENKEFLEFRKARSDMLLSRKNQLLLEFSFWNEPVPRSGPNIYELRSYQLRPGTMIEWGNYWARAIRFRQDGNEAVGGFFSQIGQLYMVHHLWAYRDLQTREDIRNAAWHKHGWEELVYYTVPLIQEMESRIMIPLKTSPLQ
UniProt Q9Y2I1: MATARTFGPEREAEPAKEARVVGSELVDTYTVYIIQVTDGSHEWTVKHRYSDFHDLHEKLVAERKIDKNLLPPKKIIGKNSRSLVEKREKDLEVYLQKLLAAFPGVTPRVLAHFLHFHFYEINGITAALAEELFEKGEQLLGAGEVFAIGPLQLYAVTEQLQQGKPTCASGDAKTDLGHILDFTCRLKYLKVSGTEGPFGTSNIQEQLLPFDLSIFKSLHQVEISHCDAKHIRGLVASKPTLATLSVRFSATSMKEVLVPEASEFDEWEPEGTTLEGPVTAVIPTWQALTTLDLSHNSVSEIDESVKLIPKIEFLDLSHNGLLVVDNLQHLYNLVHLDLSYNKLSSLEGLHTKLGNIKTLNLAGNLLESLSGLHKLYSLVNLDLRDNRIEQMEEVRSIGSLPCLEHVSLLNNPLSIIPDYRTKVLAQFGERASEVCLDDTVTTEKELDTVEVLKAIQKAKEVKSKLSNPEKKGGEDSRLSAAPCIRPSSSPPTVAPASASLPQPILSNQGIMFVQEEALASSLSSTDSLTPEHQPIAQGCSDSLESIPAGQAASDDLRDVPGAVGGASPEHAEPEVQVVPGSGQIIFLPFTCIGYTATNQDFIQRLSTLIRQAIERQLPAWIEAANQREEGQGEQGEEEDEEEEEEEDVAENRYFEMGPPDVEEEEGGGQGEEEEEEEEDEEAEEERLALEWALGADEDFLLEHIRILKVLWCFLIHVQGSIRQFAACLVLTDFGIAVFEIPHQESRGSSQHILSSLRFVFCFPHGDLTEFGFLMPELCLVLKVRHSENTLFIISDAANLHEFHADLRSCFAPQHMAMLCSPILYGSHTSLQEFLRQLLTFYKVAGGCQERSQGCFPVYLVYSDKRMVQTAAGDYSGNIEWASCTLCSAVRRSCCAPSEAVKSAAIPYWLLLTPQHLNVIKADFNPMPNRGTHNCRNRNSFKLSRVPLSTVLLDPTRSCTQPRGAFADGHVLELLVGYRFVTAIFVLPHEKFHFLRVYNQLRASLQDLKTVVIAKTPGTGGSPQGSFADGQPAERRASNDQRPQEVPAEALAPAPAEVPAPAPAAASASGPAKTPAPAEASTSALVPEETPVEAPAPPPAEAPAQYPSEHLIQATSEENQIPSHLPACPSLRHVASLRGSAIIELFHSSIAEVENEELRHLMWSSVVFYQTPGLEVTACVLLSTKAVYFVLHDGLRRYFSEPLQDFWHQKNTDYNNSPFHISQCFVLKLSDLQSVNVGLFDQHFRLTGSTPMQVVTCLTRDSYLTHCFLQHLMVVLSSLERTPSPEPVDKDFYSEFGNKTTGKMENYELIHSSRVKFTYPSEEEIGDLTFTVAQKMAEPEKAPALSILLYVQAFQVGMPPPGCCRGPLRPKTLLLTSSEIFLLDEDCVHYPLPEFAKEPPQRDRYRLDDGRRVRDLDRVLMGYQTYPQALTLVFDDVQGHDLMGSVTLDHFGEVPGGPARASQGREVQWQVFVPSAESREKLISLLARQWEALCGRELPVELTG
UniProt Q96PY6: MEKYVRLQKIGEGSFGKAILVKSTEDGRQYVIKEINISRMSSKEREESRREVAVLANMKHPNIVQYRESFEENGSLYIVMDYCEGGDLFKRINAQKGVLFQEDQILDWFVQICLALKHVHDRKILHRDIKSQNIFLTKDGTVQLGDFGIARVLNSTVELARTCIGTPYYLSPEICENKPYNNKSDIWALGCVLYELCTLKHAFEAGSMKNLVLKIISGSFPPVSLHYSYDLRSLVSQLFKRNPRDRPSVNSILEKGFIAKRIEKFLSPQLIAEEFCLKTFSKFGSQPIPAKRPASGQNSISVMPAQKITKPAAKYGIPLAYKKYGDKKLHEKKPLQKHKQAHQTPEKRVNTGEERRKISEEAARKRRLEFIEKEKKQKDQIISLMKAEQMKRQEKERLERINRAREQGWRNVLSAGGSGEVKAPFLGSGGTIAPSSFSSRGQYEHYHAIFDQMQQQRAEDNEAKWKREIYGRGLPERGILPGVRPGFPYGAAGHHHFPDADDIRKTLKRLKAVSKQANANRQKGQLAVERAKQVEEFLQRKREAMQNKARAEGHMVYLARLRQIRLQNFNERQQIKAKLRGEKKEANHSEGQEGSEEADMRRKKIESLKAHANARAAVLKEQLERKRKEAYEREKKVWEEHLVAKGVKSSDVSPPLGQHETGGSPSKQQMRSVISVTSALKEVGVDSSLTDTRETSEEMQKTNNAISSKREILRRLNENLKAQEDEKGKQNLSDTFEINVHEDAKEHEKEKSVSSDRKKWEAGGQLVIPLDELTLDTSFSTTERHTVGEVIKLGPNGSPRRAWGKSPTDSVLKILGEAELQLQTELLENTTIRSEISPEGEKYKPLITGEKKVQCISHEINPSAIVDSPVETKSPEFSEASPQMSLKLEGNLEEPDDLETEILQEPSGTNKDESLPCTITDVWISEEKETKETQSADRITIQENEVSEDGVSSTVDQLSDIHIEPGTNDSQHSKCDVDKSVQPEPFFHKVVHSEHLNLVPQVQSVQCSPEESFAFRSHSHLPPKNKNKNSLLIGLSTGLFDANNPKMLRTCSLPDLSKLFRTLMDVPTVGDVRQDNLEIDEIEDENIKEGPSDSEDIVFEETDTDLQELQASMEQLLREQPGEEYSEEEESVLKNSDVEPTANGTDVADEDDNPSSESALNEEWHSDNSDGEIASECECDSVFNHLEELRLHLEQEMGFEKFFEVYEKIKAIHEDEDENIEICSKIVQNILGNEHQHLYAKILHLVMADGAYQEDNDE
UniProt O00483, whole entry, looked up: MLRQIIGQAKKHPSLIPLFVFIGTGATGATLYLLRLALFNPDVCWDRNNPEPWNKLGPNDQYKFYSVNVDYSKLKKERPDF
UniProt Q9UFN0: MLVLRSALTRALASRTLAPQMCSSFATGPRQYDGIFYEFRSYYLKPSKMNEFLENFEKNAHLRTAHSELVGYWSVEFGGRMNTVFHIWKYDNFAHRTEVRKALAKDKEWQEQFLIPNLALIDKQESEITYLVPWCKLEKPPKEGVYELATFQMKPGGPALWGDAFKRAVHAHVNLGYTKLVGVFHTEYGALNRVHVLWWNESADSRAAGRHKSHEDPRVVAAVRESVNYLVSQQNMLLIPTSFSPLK
UniProt O95298, whole entry, looked up: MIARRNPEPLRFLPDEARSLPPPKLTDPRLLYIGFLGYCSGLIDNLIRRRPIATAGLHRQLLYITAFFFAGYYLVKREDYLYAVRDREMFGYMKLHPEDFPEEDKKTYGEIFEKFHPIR
UniProt Q9BU61: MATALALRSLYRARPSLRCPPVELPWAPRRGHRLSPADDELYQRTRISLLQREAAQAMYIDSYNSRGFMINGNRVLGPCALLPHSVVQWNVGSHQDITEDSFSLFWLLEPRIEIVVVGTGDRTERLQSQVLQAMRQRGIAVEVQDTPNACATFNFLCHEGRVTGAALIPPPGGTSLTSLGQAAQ
UniProt Q9P032: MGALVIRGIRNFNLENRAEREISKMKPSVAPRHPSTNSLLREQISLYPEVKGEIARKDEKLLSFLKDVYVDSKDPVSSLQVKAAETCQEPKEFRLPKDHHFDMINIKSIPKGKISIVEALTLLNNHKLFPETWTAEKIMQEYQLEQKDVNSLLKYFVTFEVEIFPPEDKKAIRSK
UniProt Q8N8Q9: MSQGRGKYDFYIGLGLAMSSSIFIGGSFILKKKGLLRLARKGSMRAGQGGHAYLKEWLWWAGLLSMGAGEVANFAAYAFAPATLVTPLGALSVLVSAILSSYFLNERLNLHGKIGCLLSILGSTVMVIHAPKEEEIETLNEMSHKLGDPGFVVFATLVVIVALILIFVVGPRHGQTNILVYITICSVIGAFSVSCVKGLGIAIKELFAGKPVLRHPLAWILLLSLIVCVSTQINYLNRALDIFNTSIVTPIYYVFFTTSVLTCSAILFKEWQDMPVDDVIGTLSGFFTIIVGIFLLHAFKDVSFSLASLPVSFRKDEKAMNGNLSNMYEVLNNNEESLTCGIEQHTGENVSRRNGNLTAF
UniProt O76041: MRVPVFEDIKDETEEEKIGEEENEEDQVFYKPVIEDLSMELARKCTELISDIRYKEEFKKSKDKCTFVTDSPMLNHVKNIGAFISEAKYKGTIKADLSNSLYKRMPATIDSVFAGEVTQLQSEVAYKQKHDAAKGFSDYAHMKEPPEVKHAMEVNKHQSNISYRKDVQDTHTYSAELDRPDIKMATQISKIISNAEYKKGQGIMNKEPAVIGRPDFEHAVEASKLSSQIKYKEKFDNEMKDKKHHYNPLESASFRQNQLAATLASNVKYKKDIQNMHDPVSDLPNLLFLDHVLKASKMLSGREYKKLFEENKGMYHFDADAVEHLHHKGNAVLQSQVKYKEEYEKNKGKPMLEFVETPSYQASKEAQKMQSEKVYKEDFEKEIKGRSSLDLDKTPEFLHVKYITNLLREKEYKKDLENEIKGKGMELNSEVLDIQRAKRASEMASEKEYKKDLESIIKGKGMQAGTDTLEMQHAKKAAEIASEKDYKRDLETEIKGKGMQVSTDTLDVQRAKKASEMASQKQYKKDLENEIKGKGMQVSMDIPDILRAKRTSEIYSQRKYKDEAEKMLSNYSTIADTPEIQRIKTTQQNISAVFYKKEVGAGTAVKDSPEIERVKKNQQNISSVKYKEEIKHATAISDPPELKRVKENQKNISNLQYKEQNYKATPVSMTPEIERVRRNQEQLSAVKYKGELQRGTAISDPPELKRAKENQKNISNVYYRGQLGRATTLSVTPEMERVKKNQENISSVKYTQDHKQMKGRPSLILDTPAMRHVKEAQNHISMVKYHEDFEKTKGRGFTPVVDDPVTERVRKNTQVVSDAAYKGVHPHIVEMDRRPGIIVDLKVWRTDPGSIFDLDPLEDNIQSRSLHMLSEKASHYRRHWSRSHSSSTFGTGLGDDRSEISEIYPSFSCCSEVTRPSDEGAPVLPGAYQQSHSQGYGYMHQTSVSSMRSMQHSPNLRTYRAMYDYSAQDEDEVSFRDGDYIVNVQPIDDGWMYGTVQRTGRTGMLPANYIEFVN

What was measured:
Experiment in all cases: log2 fold change, soluble protein after heating vs DMSO (PISA); higher = thermal stabilisation; K562 lysate, 10 uM; active = over 0.2 and 3.5 SD of the protein, either way, in both replicates (recomputed)
vemurafenib = compound: CCCS(=O)(=O)Nc1ccc(F)c(C(=O)c2c[nH]c3ncc(-c4ccc(Cl)cc4)cc23)c1F [vemurafenib]
In short: (§1)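 Thermal stability, expressed as log-two fold change relative to solvent controls, is given from duplicates. Crude K562 extract in PBS pH 7.4 with 1 mM MgCl2, at 1 mg/mL protein, was treated with 10 μM compound for 30 min and heated in aliquots for 3 min across 48°C-58°C. After pooling, adjustment to 0.5% NP-40 at 4°C and centrifugation at 21,000xg for 90 min, supernatant protein was measured by TMTpro 16plex LC-MS/MS with channel sums equalised.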

[1] = compound: CCCS(=O)(=O)Nc1ccc(F)c(C(=O)c2c[nH]c3ncc(Cl)cc23)c1F
In short: as §1

barasertib = compound: CCN(CCCOc1ccc2c(Nc3cc(CC(=O)Nc4cccc(F)c4)[nH]n3)ncnc2c1)CCOP(=O)(O)O [barasertib]
In short: as §1

[2] = compound: CC[C@@H]1C(=O)N(C)c2cnc(Nc3ccc(C(=O)NC4CCN(C)CC4)cc3OC)nc2N1C1CCCC1
In short: as §1

volasertib = compound: CC[C@@H]1C(=O)N(C)c2cnc(Nc3ccc(C(=O)N[C@H]4CC[C@H](N5CCN(CC6CC6)CC5)CC4)cc3OC)nc2N1C(C)C [volasertib]
In short: as §1

[3] = compound: CCn1c(C(=O)N(C2CC2)C2CC2)cc2c3c(ncn3C)c(Nc3cc(C)n(C)n3)nc21
In short: as §1

[4] = compound: CCn1cc(-c2ccnc3[nH]c(-c4cccc(CN(C)C)c4)cc23)c(-c2ccc(NC(=O)N(C)C)cc2)n1
In short: as §1

[5] = compound: CN1CCC(CNc2ccc3ncc(-c4cccc(OC(F)(F)F)c4)n3n2)CC1
In short: as §1

saracatinib = compound: CN1CCN(CCOc2cc(OC3CCOCC3)c3c(Nc4c(Cl)ccc5c4OCO5)ncnc3c2)CC1 [saracatinib]
In short: as §1

sotrastaurin = compound: CN1CCN(c2nc(C3=C(c4c[nH]c5ccccc45)C(=O)NC3=O)c3ccccc3n2)CC1 [sotrastaurin]
In short: as §1

Measured: log2 fold change

NDUFA2 (UniProt O43678)
inactive: vemurafenib 0.059 | [1] -0.024 | barasertib 0.094 | [2] 0.048 | volasertib 0.017 | [3] -0.003 | [4] -0.052 | [5] -0.013 | saracatinib 0.052 | sotrastaurin -0.046

NEXN (UniProt Q0ZGT2)
inactive: vemurafenib 0.073 | [1] 0.218 | barasertib 0.101 | [2] -0.132 | volasertib 0.051 | [3] 0.075 | [4] -0.231 | [5] 0.209 | saracatinib 0.026

NFU1 (UniProt Q9UMS0)
inactive: vemurafenib 0.003 | [1] -0.018 | barasertib 0.246 | [2] 0.071 | volasertib 0.03 | [3] -0.014 | [4] 0.024 | [5] -0.125 | saracatinib 0.016 | sotrastaurin -0.041

NDUFV1 (UniProt P49821)
inactive: vemurafenib 0.036 | [1] 0.015 | barasertib -0.03 | [2] 0.035 | volasertib 0.006 | [3] -0.015 | [4] -0.089 | [5] 0.003 | saracatinib 0.021 | sotrastaurin 0.029

NGRN (UniProt Q9NPE2)
inactive: vemurafenib -0.076 | [1] 0.029 | barasertib 0.021 | [2] -0.013 | volasertib 0.065 | [3] -0.018 | [4] 0.043 | [5] 0.03 | saracatinib 0.079 | sotrastaurin 0.034

NDUFA9 (UniProt Q16795)
inactive: vemurafenib 0 | [1] 0.083 | barasertib 0.03 | [2] -0.012 | volasertib 0.041 | [3] 0.036 | [4] 0.032 | [5] -0.216 | saracatinib -0.022 | sotrastaurin 0.095

NDUFS8 (UniProt O00217)
inactive: vemurafenib 0.003 | [1] 0.036 | barasertib 0.09 | [2] -0.031 | volasertib -0.007 | [3] 0.02 | [4] 0.028 | [5] -0.168 | saracatinib -0.008 | sotrastaurin 0.01

NFATC3 (UniProt Q12968)
inactive: vemurafenib -0.008 | [1] 0.014 | barasertib -0.02 | [2] -0.069 | volasertib 0.006 | [3] 0.042 | [4] -0.024 | [5] -0.012 | saracatinib 0.065 | sotrastaurin 0

NLE1 (UniProt Q9NVX2)
inactive: vemurafenib 0 | [1] 0.002 | barasertib -0.027 | [2] -0.035 | volasertib 0.023 | [3] 0 | [4] -0.026 | [5] 0.023 | saracatinib -0.017 | sotrastaurin 0.011

NELFCD (UniProt Q8IXH7)
inactive: vemurafenib 0.014 | [1] 0.037 | barasertib 0.047 | [2] 0.006 | volasertib -0.032 | [3] 0.02 | [4] 0.089 | [5] -0.049 | saracatinib -0.005 | sotrastaurin 0.012

NKTR (UniProt P30414)
inactive: vemurafenib 0.033 | [1] -0.064 | barasertib 0.099 | [2] 0.18 | volasertib 0.029 | [3] -0.05 | [4] -0.346 | [5] 0.476 | saracatinib 0.056

Reprinted from the listing (2 entries):
NELFCD (UniProt Q8IXH7)
inactive: vemurafenib 0.014 | [1] 0.037 | barasertib 0.047 | [2] 0.006 | volasertib -0.032 | [3] 0.02 | [4] 0.089 | [5] -0.049 | saracatinib -0.005 | sotrastaurin 0.012

NKTR (UniProt P30414)
inactive: vemurafenib 0.033 | [1] -0.064 | barasertib 0.099 | [2] 0.18 | volasertib 0.029 | [3] -0.05 | [4] -0.346 | [5] 0.476 | saracatinib 0.056

Following part.

NIPSNAP2 (UniProt O75323)
inactive: vemurafenib 0.079 | [1] 0.086 | barasertib 0.018 | [2] -0.018 | volasertib -0.023 | [3] -0.034 | [4] -0.015 | [5] -0.181 | saracatinib 0.007 | sotrastaurin -0.015

NISCH (UniProt Q9Y2I1)
inactive: vemurafenib -0.01 | [1] -0.013 | barasertib 0.014 | [2] -0.042 | volasertib -0.039 | [3] 0.028 | [4] 0.051 | [5] -0.106 | saracatinib -0.03 | sotrastaurin 0.017

NDUFAF7 (UniProt Q7L592)
inactive: vemurafenib 0.041 | [1] -0.01 | barasertib -0.038 | [2] 0.023 | volasertib -0.013 | [3] 0.019 | [4] 0.025 | [5] -0.048 | saracatinib 0.015 | sotrastaurin 0.031

NEK1 isoform 3 (UniProt Q96PY6)
inactive: vemurafenib -0.058 | [1] -0.074 | barasertib 0.007 | [2] 0.018 | volasertib -0.21 | [3] -0.031 | [4] 0.042 | [5] -0.084 | saracatinib 0.041 | sotrastaurin 0.015

NDUFAB1 (UniProt O14561)
inactive: vemurafenib 0.056 | [1] 0.029 | barasertib 0.019 | [2] 0.089 | volasertib 0.012 | [3] 0.08 | [4] -0.096 | [5] 0.006 | saracatinib -0.03 | sotrastaurin -0.296

NDUFA4 (UniProt O00483)
inactive: vemurafenib -0.009 | [1] 0.245 | barasertib 0.058 | [2] 0.011 | volasertib 0.122 | [3] 0.085 | [4] 0.067 | [5] -0.134 | saracatinib 0.018 | sotrastaurin -0.063

NIPSNAP3A (UniProt Q9UFN0)
inactive: vemurafenib -0.005 | [1] 0.018 | barasertib -0.04 | [2] 0.043 | volasertib 0.019 | [3] -0.024 | [4] 0.324 | [5] -0.213 | saracatinib -0.002 | sotrastaurin 0.021

NDUFC2 (UniProt O95298)
inactive: vemurafenib 0.038 | [1] 0.02 | barasertib 0.009 | [2] -0.003 | volasertib 0.017 | [3] 0.068 | [4] 0.076 | [5] -0.064 | saracatinib -0.019 | sotrastaurin -0.026

NDUFA5 (UniProt Q16718)
inactive: vemurafenib -0.032 | [1] -0.012 | barasertib 0.187 | [2] 0.012 | volasertib 0.011 | [3] 0.002 | [4] -0.014 | [5] -0.093 | saracatinib 0.02 | sotrastaurin -0.068

NDUFAF3 (UniProt Q9BU61)
inactive: vemurafenib -0.016 | [1] -0.008 | barasertib 0.151 | [2] -0.017 | volasertib -0.015 | [3] 0.037 | [4] -0.044 | [5] -0.023 | saracatinib -0.017 | sotrastaurin 0.007

NDUFB7 (UniProt P17568)
inactive: vemurafenib 0.02 | [1] 0.037 | barasertib 0.003 | [2] 0.048 | volasertib 0.019 | [3] -0.111 | [4] 0.29 | [5] -0.156 | saracatinib -0.103 | sotrastaurin 0.001

NDUFAF4 (UniProt Q9P032)
inactive: vemurafenib -0.029 | [1] 0.038 | barasertib 0.043 | [2] 0.016 | volasertib -0.001 | [3] 0.039 | [4] 0.182 | [5] -0.08 | saracatinib 0.011 | sotrastaurin -0.021

NDUFV2 (UniProt P19404)
inactive: vemurafenib -0.015 | [1] -0.001 | barasertib 0.105 | [2] 0.06 | volasertib 0.017 | [3] -0.031 | [4] -0.042 | [5] -0.031 | saracatinib -0.011 | sotrastaurin 0.01

NDUFB10 (UniProt O96000)
inactive: vemurafenib -0.021 | [1] 0.046 | barasertib 0.017 | [2] 0.034 | volasertib 0.006 | [3] -0.009 | [4] 0.012 | [5] -0.04 | saracatinib -0.001 | sotrastaurin 0.002

NIPA2 (UniProt Q8N8Q9)
inactive: vemurafenib 0.064 | [1] 0.081 | barasertib -0.13 | [2] 0.106 | volasertib 0.025 | [3] 0.181 | [4] -0.027 | [5] 0.169 | saracatinib 0.057 | sotrastaurin 0.02

NEK4 (UniProt P51957)
inactive: vemurafenib 0.093

NEBL (UniProt O76041)
active: [4] 0.29
inactive: vemurafenib 0.034 | [1] -0.027 | barasertib 0.066 | [2] 0.039 | volasertib 0.014 | [3] -0.014 | [5] -0.002 | saracatinib -0.035 | sotrastaurin 0.085

NES (UniProt P48681)
inactive: vemurafenib -0.021 | [1] 0.009 | barasertib 0.042 | [2] -0.017 | volasertib 0.021 | [3] -0.016 | [4] 0.037 | [5] 0.009 | saracatinib 0.044 | sotrastaurin -0.008

NKIRAS2 (UniProt Q9NYR9)
inactive: vemurafenib 0.011 | [1] -0.039 | barasertib -0.019 | [2] -0.019 | volasertib -0.072 | [3] -0.013 | [4] 0.006 | [5] -0.012 | saracatinib 0.001 | sotrastaurin 0.014

NIFK (UniProt Q9BYG3)
inactive: vemurafenib 0.015 | [1] 0.036 | barasertib 0.033 | [2] 0.006 | volasertib -0.027 | [3] 0.009 | [4] 0.093 | [5] -0.045 | saracatinib 0.005 | sotrastaurin -0.018
